Results are given in words; binding and its absence hold for the method and conditions named. For some assays here: Binding seen in cells or lysates may run through a third protein. Some binding calls cover weakened binding; strength is not graded here. For some assays here: Where a sequence is shown, tags or fusion partners need not be part of it.
Legend:
[1] = molecular target: T1, Mind Bomb-2 (MIB2), endogenous (human (endogenous in HEK293, MDA-MB-231, HT1080, 786-0)) (UniProt Q96AX9); assay: co-IP; immuno-precipitation of endogenous MIB2 from MDA-MB-231 or 786-0 cells left untreated (no TNF); western blot
T1 sequence: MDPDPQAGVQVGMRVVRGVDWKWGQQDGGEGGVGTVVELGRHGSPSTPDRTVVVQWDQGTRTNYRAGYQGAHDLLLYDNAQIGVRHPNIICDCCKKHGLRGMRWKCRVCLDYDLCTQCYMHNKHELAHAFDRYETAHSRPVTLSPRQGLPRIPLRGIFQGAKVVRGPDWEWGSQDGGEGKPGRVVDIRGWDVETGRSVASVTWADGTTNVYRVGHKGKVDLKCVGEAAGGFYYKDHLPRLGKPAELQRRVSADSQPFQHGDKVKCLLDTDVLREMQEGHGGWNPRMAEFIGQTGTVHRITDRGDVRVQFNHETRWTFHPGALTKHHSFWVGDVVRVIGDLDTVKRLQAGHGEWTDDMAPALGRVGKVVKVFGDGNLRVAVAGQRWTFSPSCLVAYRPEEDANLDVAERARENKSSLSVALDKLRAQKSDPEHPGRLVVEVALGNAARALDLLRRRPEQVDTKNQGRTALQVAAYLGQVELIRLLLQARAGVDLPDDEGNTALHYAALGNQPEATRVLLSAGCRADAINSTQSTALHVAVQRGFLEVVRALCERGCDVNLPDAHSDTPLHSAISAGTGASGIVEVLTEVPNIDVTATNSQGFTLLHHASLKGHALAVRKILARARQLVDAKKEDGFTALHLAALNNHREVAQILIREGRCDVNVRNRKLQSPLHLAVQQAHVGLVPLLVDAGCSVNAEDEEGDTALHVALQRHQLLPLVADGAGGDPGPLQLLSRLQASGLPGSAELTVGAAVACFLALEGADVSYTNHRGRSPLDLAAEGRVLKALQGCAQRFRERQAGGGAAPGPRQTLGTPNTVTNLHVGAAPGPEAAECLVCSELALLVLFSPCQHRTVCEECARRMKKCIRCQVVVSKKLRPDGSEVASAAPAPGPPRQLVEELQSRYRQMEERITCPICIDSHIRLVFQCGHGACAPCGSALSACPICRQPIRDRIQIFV

The chains behind the UniProt entries cited, without tags or fusion partners.
UniProt Q13546: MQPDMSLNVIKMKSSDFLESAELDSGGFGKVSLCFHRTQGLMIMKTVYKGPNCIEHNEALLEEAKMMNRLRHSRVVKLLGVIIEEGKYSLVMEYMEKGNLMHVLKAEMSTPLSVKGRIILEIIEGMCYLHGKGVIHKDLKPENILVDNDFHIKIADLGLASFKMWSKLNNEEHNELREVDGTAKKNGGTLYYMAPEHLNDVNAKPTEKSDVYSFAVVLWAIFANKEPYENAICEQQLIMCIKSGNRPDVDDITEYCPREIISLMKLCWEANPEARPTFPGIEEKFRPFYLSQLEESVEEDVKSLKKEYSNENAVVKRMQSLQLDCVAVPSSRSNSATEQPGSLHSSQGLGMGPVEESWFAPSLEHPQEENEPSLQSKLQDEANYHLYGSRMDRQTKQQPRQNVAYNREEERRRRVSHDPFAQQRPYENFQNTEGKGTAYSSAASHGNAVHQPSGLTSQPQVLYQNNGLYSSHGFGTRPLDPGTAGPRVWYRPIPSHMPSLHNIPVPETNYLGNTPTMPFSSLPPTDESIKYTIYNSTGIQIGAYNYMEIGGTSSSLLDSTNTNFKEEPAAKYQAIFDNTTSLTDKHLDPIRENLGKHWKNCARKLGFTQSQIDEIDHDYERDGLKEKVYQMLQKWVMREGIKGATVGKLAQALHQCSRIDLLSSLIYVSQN

[2] = molecular target: T2, in vitro translated FLAG-MIB2 (UniProt Q96AX9); assay: pull-down; in vitro translated FLAG-MIB2 incubated with lysates of MDA-MB-231 cells left untreated or treated with TNF/SM/zVAD-fmk for 4 hr
T2 sequence: T1 sequence

[3] = molecular target: T1, Mind Bomb-2 (MIB2), endogenous (human (endogenous in HEK293, MDA-MB-231, HT1080, 786-0)); assay: co-IP; immuno-precipitation of endogenous MIB2 with a MIB2 antibody (protein A/G agarose) from MDA-MB-231 or 786-0 cells treated with FLAG-hTNF (0.8 μg/mL) for the indicated times; western blot
recombinant MIB2 = molecular target: T3, recombinant MIB2 (UniProt Q96AX9); assay: in vitro binding assay; recombinant MIB2 with in vitro translated RIPK1; only the target purified
T3 sequence: T1 sequence

HA-MIB2 = molecular target: T4, HA-MIB2 (UniProt Q96AX9); assay: co-IP; HA-tagged MIB constructs co-expressed with untagged RIPK1 in 293T cells; HA immuno-precipitation (anti-HA beads, DISC lysis buffer, overnight at 4°C), western blot for RIPK1
T4 sequence: T1 sequence

Substance: RIPK1, endogenous (from UniProt Q13546 1-671)
- binding [1]: no binding (condition: cells not stimulated with TNF)
- binding [2]: binds
- binding [3]: binds

Substance: in vitro translated RIPK1 (from UniProt Q13546 1-671)
- binding (recombinant MIB2): binds

Substance: untagged RIPK1 (from UniProt Q13546 1-671)
- binding (HA-MIB2): binds

Reference: paper PMC5912950
